This passage reports binding signal results from publication PMC5996148.

“And” between values parts separate entries of the source, which are not always exact repeats. Equal entries are not always repeated. This is one part of the list. For some of these results: The source does not settle which construct or isoform was used.

Test systems include ISG20 (human); ISGF3G (human); ITGB1BP3 (human); ITM2A (human); ITPA (human); IZUMO1 (human).
Holding throughout (experiment): protein microarray (ProtoArray v5.0), streptavidin-Alexa Fluor 647
Common to all, as to details: 3'-biotin; 20 mM Tris (pH 7.5), 5 mM MgCl2, 100 mM KCl, 0.1% Tween-20, A/T-rich and random oligonucleotide blockers; temperature not stated; high values mean tight binding

The target in another experiment is ITM2B (UniProt Q9Y287).
The test system of experiment [1] is Ig gamma-1 chain C region (human).
The subject of experiment [2] is Ig lambda chain C regions (human).
In experiment [3] the test system is Immunoglobulin iota chain (human).

As for “GGGAGGCTGAGGCAGG [G4-1 biotinylated (PQS2)]”, the binding signal in the experiment on ISG20 (human) was -0.299 z-score; with ISGF3G (human) it was -0.343 z-score; in the experiment with ITGB1BP3 (human), -0.323 z-score; in the experiment with ITM2A (human) it was -0.318 z-score; with ITM2B, -0.308 z-score; with ITPA (human), -0.301 z-score. The binding signal with IZUMO1 (human) was -0.302 z-score; in [1], -0.273 z-score and -0.317 z-score and -0.302 z-score; in [2] it was -0.329 z-score; in experiment [3], -0.281 z-score.
